Experimental findings from the supplement of paper PMC4256282, “Profound Activity of the Anti-cancer Drug Bortezomib against Echinococcus multilocularis Metacestodes Identifies the Proteasome as a Novel Drug Target for Cestodes” (PLoS Neglected Tropical Diseases, 2014) are described below.

The structures appear in SMILES notation. Where a name gives a salt, the structure may show the parent alone. The list shows a part of the results. Most values come without repeats; read them as rough.

The assay has as its system Echinococcus multilocularis metacestodes. Put plainly: vesicle damage (PGI release) relative to positive control DB1127 at 20 µM, DMSO subtracted; higher = more parasite damage. The conditions noted are these: treatment time 5 days.
Regarding `Cc1nnc(C(=O)NC(C)(C)c2nc(C(=O)NCc3ccc(F)cc3)c(O)c(=O)n2C)o1` [Raltegravir], the vesicle damage turned out to be 0.0693%. The value for `COc1c2occc2cc2ccc(=O)oc12` [Methoxsalen] was -7.39%; that for `CC(C)(C)NC(=O)[C@H]1CC[C@H]2[C@@H]3CC[C@H]4NC(=O)C=C[C@]4(C)[C@H]3CC[C@]12C` [Finasteride] was 0.276%; that for `Cc1noc(NS(=O)(=O)c2ccc(N)cc2)c1C` [Sulfisoxazole] was -7.41%. The value for `COC(=O)[C@@H]1CC2=CC(=O)CC[C@]2(C)[C@@]23O[C@@H]2C[C@@]2(C)[C@@H](CC[C@@]24CCC(=O)O4)[C@H]13` [Eplerenone] was -2.31%; that for `NC(=O)CC[C@H](N)C(=O)O` [L-Glutamine] was -11.6%; that for `CC(C)Cc1ccc(C(C)C(=O)O)cc1` (stereo not drawn) [Ibuprofen] was -1.11%. The value for `COc1cccc2c1C(=O)c1c(O)c3c(c(O)c1C2=O)C[C@@](O)(C(=O)CO)C[C@@H]3O[C@H]1C[C@H](N)[C@H](O)[C@H](C)O1` [Adriamycin] was -0.342%; that for `CC/C(=C(\c1ccccc1)c1ccc(OCCN(C)C)cc1)c1ccccc1` [Tamoxifen Citrate] was 43.3%; that for `Nc1nc(=O)[nH]cc1F` [Flucytosine] was -3.21%. In the case of `Cc1nc(-c2ccc(OCC(C)C)c(C#N)c2)sc1C(=O)O` [Febuxostat], the vesicle damage amounted to 10.1%.

On to `CCC1=C(C)CN(C(=O)NCCc2ccc(S(=O)(=O)NC(=O)N[C@H]3CC[C@H](C)CC3)cc2)C1=O` [Glimepiride], for which the vesicle damage is -1.97%.

As for `Nc1ccn([C@@H]2CS[C@H](CO)O2)c(=O)n1` [Lamivudine], the vesicle damage is -0.661%. The value for `COCCCOc1cc(C[C@@H](C[C@H](N)[C@@H](O)C[C@H](C(=O)NCC(C)(C)C(N)=O)C(C)C)C(C)C)ccc1OC` [Aliskiren hemifumarate] was 3.14%; that for `Clc1ccc(COC(Cn2ccnc2)c2ccc(Cl)cc2Cl)c(Cl)c1` (stereo not drawn) [Miconazole] was -10.1%. For `O=c1[nH]c(=O)n([C@H]2C[C@H](O)[C@@H](CO)O2)cc1F` [Floxuridine], the vesicle damage amounted to 2.37%. The value for `Oc1ccc(/C=C/c2cc(O)cc(O)c2)cc1` [Resveratrol] was -3.14%; that for `CCc1c2c(nc3ccc(OC(=O)N4CCC(N5CCCCC5)CC4)cc13)-c1cc3c(c(=O)n1C2)COC(=O)[C@]3(O)CC` [Irinotecan] was 2.49%.

In the case of `Nc1nc2[nH]cc(CCc3ccc(C(=O)N[C@@H](CCC(=O)O)C(=O)O)cc3)c2c(=O)[nH]1` [Pemetrexed disodium], the vesicle damage is -4.64%. Under `CCOC(=O)N1CCC(=C2c3ccc(Cl)cc3CCc3cccnc32)CC1` [Loratadine] stands -2.06%; under `Cc1ccnc2c1NC(=O)c1cccnc1N2C1CC1` [Nevirapine], -12%; under `Nc1nc(Cl)nc2c1ncn2[C@H]1C[C@H](O)[C@@H](CO)O1` [Cladribine], -0.352%. Under `COc1cc2/c(=N/c3ccc(Br)cc3F)nc[nH]c2cc1OCC1CCN(C)CC1` [Vandetanib] stands -1.88%; under `Nc1nc(Cl)nc2c1ncn2[C@@H]1O[C@H](CO)[C@@H](O)[C@@H]1F` [Clofarabine], -0.038%; under `Nc1nc2[nH]cnc2c(=S)[nH]1` [Thioguanine], -9.75%. The value for `CCOC(=O)C1=C(COCCN)NC(C)=C(C(=O)OC)C1c1ccccc1Cl` (stereo not drawn) [Amlodipine besylate] was 35.5%. In the case of `CCN(CC)CC(=O)Nc1c(C)cccc1C` [Lidocaine], the vesicle damage is -1.43%.

Take `NS(=O)(=O)Cc1noc2ccccc12` [Zonisamide]: the vesicle damage is -4.09%. The value for `CO[C@H]1/C=C/O[C@@]2(C)Oc3c(C)c(O)c4c(O)c(c(/C=N/N5CCN(C6CCCC6)CC5)c(O)c4c3C2=O)NC(=O)/C(C)=C\C=C\[C@H](C)[C@H](O)[C@@H](C)[C@@H](O)[C@@H](C)[C@H](OC(C)=O)[C@@H]1C` [Rifapentine] was 2.18%. The value for `O=C(O)C1(C(=O)O)CCC1.[NH2-].[NH2-].[Pt+2]` [Carboplatin] was -0.898%. Regarding `CNC(=O)CN(CCN(CCN(CC(=O)[O-])CC(=O)NC)CC(=O)[O-])CC(=O)[O-].[Gd+3]` [Gadodiamide], the vesicle damage is -13%. Turning to `NC(=O)c1cccnc1` [Nicotinamide], the vesicle damage is -7.36%. The value for `CO[C@H]1C[C@@H]2CC[C@@H](C)[C@@](O)(O2)C(=O)C(=O)N2CCCC[C@H]2C(=O)O[C@H]([C@H](C)C[C@@H]2CC[C@@H](O)[C@H](OC)C2)CC(=O)[C@H](C)/C=C(\C)[C@@H](O)[C@@H](OC)C(=O)[C@H](C)C[C@H](C)/C=C/C=C/C=C/1C` [Rapamycin] was -4.13%.
